Patent publication US20240261378A1
Results are given in words; binding and its absence hold for the method and conditions named. Binding seen in cells or lysates may run through a third protein. Some binding calls cover weakened binding; strength is not graded here. Tags and fused reporters may be left off the sequences shown.

By UniProt entry, the sequences of proteins in these tests, tags left out. Where a name states a change or a piece, a line headed by the entry shows the natural chain unless it says otherwise.
UniProt P17931: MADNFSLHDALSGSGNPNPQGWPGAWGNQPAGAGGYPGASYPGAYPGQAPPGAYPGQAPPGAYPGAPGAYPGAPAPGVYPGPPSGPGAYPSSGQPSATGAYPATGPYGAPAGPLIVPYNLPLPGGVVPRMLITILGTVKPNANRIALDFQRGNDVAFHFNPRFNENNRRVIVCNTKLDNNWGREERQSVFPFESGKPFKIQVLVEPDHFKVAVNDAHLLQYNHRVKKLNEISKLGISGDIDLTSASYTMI

T1: GST-Galectin-8 (human)
T1 sequence: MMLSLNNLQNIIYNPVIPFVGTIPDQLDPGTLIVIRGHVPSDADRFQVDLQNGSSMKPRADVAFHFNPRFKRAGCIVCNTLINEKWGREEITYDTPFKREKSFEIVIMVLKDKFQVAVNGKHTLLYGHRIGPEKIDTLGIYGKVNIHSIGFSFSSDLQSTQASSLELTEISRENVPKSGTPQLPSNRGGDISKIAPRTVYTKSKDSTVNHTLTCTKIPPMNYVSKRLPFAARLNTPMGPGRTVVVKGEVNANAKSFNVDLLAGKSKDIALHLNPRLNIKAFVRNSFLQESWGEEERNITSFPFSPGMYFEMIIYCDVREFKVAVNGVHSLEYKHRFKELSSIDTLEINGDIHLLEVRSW

B1: 35S-Myc-HA-TRIM23 (in vitro translated) (protein, UniProt P36406 1-574, looked up, not shown: small tags and cut ends)
chain: MATLVVNKLGAGVDSGRQGSRGTAVVKVLECGVCEDVFSLQGDKVPRLLLCGHTVCHDCLTRLPLHGRAIRCPFDRQVTDLGDSGVWGLKKNFALLELLERLQNGPIGQYGAAEESIGISGESIIRCDEDEAHLASVYCTVCATHLCSECSQVTHSTKTLAKHRRVPLADKPHEKTMCSQHQVHAIEFVCLEEGCQTSPLMCCVCKEYGKHQGHKHSVLEPEANQIRASILDMAHCIRTFTEEISDYSRKLVGIVQHIEGGEQIVEDGIGMAHTEHVPGTAENARSCIRAYFYDLHETLCRQEEMALSVVDAHVREKLIWLRQQQEDMTILLSEVSAACLHCEKTLQQDDCRVVLAKQEITRLLETLQKQQQQFTEVADHIQLDASIPVTFTKDNRVHIGPKMEIRVVTLGLDGAGKTTILFKLKQDEFMQPIPTIGFNVETVEYKNLKFTIWDVGGKHKLRPLWKHYYLNTQAVVFVVDSSHRDRISEAHSELAKLLTEKELRDALLLIFANKQDVAGALSVEEITELLSLHKLCCGRSWYIQGCDARSGMGLYEGLDWLSRQLVAAGVLDVA
modifications: [35S]-methionine radiolabel
B2: 35S-Myc-HA-TRIM49 (in vitro translated) (protein, UniProt P0CI25 1-452, looked up, not shown: small tags and cut ends)
chain: MNSGILQVFQGELICPLCMNYFIDPVTIDCGHSFCRPCFYLNWQDIPFLVQCSECTKSTEQINLKTNIHLKKMASLARKVSLWLFLSSEEQMCGTHRETKKIFCEVDRSLLCLLCSSSQEHRYHRHRPIEWAAEEHREKLLQKMQSLWEKACENHRNLNVETTRTRCWKDYVNLRLEAIRAEYQKMPAFHHEEEKHNLEMLKKKGKEIFHRLHLSKAKMAHRMEILRGMYEELNEMCHKPDVELLQAFGDILHRSESVLLHMPQPLNPELSAGPITGLRDRLNQFRVHITLHHEEANNDIFLYEILRSMCIGCDHQDVPYFTATPRSFLAWGVQTFTSGKYYWEVHVGDSWNWAFGVCNMYRKEKNQNEKIDGKAGLFLLGCVKNDIQCSLFTTSPLMLQYIPKPTSRVGLFLDCEAKTVSFVDVNQSSLIYTIPNCSFSPPLRPIFCCIHF
modifications: [35S]-methionine radiolabel
B3: 35S-Myc-HA-TRIM17 (in vitro translated) (protein, UniProt Q9Y577 1-477, looked up, not shown: small tags and cut ends)
chain: MEAVELARKLQEEATCSICLDYFTDPVMTTCGHNFCRACIQLSWEKARGKKGRRKRKGSFPCPECREMSPQRNLLPNRLLTKVAEMAQQHPGLQKQDLCQEHHEPLKLFCQKDQSPICVVCRESREHRLHRVLPAEEAVQGYKLKLEEDMEYLREQITRTGNLQAREEQSLAEWQGKVKERRERIVLEFEKMNLYLVEEEQRLLQALETEEEETASRLRESVACLDRQGHSLELLLLQLEERSTQGPLQMLQDMKEPLSRKNNVSVQCPEVAPPTRPRTVCRVPGQIEVLRGFLEDVVPDATSAYPYLLLYESRQRRYLGSSPEGSGFCSKDRFVAYPCAVGQTAFSSGRHYWEVGMNITGDALWALGVCRDNVSRKDRVPKCPENGFWVVQLSKGTKYLSTFSALTPVMLMEPPSHMGIFLDFEAGEVSFYSVSDGSHLHTYSQATFPGPLQPFFCLGAPKSGQMVISTVTMWVKG
modifications: [35S]-methionine radiolabel
B4: 35S-Myc-HA-TRIM20 (in vitro translated) (protein, not shown: small tags and cut ends)
chain: MAKTPSDHLLSTLEELVPYDFEKFKFKLQNTSVQKEHSRIPRSQIQRARPVKMATLLVTYYGEEYAVQLTLQVLRAINQRLLAEELHRAAIQEYSTQENGTDDSAASSSLGENKPRSLKTPDHPEGNEGNGPRPYGGGAASLRCSQPEAGRGLSRKPLSKRREKASEGLDAQGKPRTRSPALPGGRSPGPCRALEGGQAEVRLRRNASSAGRLQGLAGGAPGQKECRPFEVYLPSGKMRPRSLEVTISTGEKAPANPEILLTLEEKTAANLDSATEPRARPTPDGGASADLKEGPGNPEHSVTGRPPDTAASPRCHAQEGDPVDGTCVRDSCSFPEAVSGHPQASGSRSPGCPRCQDSHERKSPGSLSPQPLPQCKRHLKQVQLLFCEDHDEPICLICSLSQEHQGHRVRPIEEVALEHKKKIQKQLEHLKKLRKSGEEQRSYGEEKAVSFLKQTEALKQRVQRKLEQVYYFLEQQEHFFVASLEDVGQMVGQIRKAYDTRVSQDIALLDALIGELEAKECQSEWELLQDIGDILHRAKTVPVPEKWTTPQEIKQKIQLLHQKSEFVEKSTKYFSETLRSEMEMFNVPELIGAQAHAVNVILDAETAYPNLIFSDDLKSVRLGNKWERLPDGPQRFDSCIIVLGSPSFLSGRRYWEVEVGDKTAWILGACKTSISRKGNMTLSPENGYWVVIMMKENEYQASSVPPTRLLIKEPPKRVGIFVDYRVGSISFYNVTARSHIYTFASCSFSGPLQPIFSPGTRDGGKNTAPLTICPVGGQGPD
modifications: [35S]-methionine radiolabel

What follows are binders tested against GST-Galectin-3 (human) (UniProt P17931) (assay: GST pull-down of in vitro translated 35S-labelled Myc-HA-TRIM).

Row | Binder | binding
1 | B1 | binds
2 | B2 | binds
3 | B3 | binds
4 | B4 | binds

Each binder was assayed against T1, GST-Galectin-8 (human) in the same assay as above.

Row | Binder | binding
5 | B1 | binds
6 | B2 | binds
7 | B3 | binds
8 | B4 | binds
